Laboratory results taken from patent publication US20160009788A1 (UNITED STATES OF AMERICA AS REPRESENTED BY THE SECRETARY …, published 2016).
No constants are given. Whether binding was seen depends on the method and setting. One block for each binder: values may come before it.

Assays:
[1] = molecular target: thyroglobulin; assay: ELISA, antigen on the solid phase, soluble Fab
[2] = molecular target: lysozyme; assay: ELISA, antigen on the solid phase, soluble Fab
[3] = molecular target: phosphorylase b; assay: ELISA, antigen on the solid phase, soluble Fab
[4] = molecular target: thyroglobulin; assay: condition: about 300 ng/ml (last point, right of the 100 tick); ELISA, antigen coated directly on the plate
[5] = molecular target: lysozyme; assay: as above
[6] = molecular target: phosphorylase b; assay: as above

binding [1]: no binding
binding [2]: no binding
binding [3]: no binding
B1: anti-NV Fab E5 (Fab, V domains shown)
VH: EVQLEQSGGGLIKPGGSLRLSCAASGFTFTKYVMHWVRQAPEKGLQWVSAIGGSGGSAWYADSVKGRFTISRDNSKNTLYLQMNSLRAEDTAVYYCARDHARYSGYNSPHEVDSWGQGTLVAVS
VL: ELELTQSPSSLSASVGDRVTITCRASQGISNYLAWYQQKPGKVPKLLIYAASTLQSGVPSRFSGSGSGTDFTLTISSLQPEDVATYYCQKYNSAPLTFGGGTKVEIKR
notes: also called ES [sic]

binding [1]: no binding
binding [2]: no binding
binding [3]: no binding
B2: anti-NV Fab F11 (Fab, V domains shown)
VH: EVQLVETGGSLVQPGGSLRLSCAASGFSVSIYHMSWVRQAPGKGLEWVSLLYSGGSTYYADSVKGRFTISRDNSKNTLYLQMNSLRAEDTAVYYCARDYSGSWVGDEARSYYYYYYMDVWGKGTTVTVS
VL: ELQVTQSPSSLSASVGDRVTITCQASQDISYYLNWYQQRPGKVPKLLIYSASYLHSGVPSRFSGSGSGTDFTLTISSLQPEDVATYYCQRTYNAPYTFGQGTKVEIKR

binding [1]: no binding
binding [2]: no binding
binding [3]: no binding
binding [4]: no binding
binding [5]: no binding
binding [6]: no binding
B3: anti-NV Fab D8 (Fab, V domains shown)
VH: EVQLEESGGGLVQPGGSLRVSCAASGFPFNGYWIHWVRQAPGKGLEWVSRVNSDGRITNFADSVMGRFTMSRDNAKSTVYLQMNSLRAEDTAMYYCSRGGYTGYPEGHWGQGTLVTVS
VL: ELQMTQSPSSLSAAVGDSVTITCRASQGISIHLAWYQQKPGKVPNLLIYAASTLQSGVPSRFSGSGSGTDFTLTINSLQPEVFATYYCQKYDSAPFTFGPGTKVDIKR

binding [1]: no binding
binding [2]: no binding
binding [3]: no binding
B4: anti-NV Fab B7 (Fab, V domains shown)
VH: EVQLEESGGDLVQPGGSLTLSCAASGFTFSRYWMSWVRQAPGKGPEWVASIKKDGSETFYADSVKGRFIISRDIAKTSLYLQMNSLRADDTAVYYCLRAWYSSAYDFWGQGTLVTVS
VL: ELELTQSPSSLSASVGDRVTITCRASQSISNYLNWYQQKPGKAPNLLIYYASTLQSGVPSRFSGSGSGTDFTLTISSLQPEDFATYYCQHGYGAIAFGQGTRLEIKR

B5: anti-NV Fab G4 (Fab, V domains shown)
VH: EVQLEESGGGLVKPGGSLRLSCAASGFTFSHYVMYWVRQAPEKGLEWVSTISGSGSSTWYPDSVKGRFTVSRDNSKNTLYLQMNSLRGDDTAVYYCARLQGQLVYWGLGTLVTVS
VL: ELQMTQSPSTLSASVGDRVTITCRASQGISSWLAWYQQKPGRAPKLLIYKSSTLESGVPSRFSGSGSGTEFTLTISSLQPDDFATYFCQQYSSNPPLTFGGGTKVEIKR
notes: also called Norwalk Fab G4
binding [1]: no binding
binding [2]: no binding
binding [3]: no binding
